We go through one compound from patent US7459444B2, “Inhibitors of chymase” (Janssen Pharmaceutica N.V., priority 2004, dated 2008).

The chains behind the UniProt entries cited, without tags or fusion partners. Residues count along the entry.
UniProt P23946, 22-247 limits assumed: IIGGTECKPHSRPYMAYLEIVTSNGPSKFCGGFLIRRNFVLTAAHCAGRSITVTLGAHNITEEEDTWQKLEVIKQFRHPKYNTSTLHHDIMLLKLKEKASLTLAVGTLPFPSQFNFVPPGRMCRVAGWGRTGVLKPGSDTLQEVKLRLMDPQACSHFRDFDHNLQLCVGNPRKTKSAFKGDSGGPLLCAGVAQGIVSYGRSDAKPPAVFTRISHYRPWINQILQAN

In this assay the target is human skin chymase (Homo sapiens, UniProt P23946). Put plainly: Enzyme-catalyzed hydrolysis assay (chymase inhibition). The class given is biochemical. The note with it: read-out: IC50 (μM) Chymase; 10 nM enzyme, 0.7 mM Suc-Ala-Ala-Pro-Phe-pNa, pH 8.0, 37° C., 30 minutes.

Structures were worked out from names or drawings and are uncertain.

What is called IC50 is the concentration at which inhibition is half-maximal. Consider `O=C(Nc1cc2ccccc2cc1O)C(c1cccc2ccccc12)P(=O)(O)O` (stereo not shown), for which the IC50 is 4.34 µM.
